Experimental data as given in PubChem BioAssay (NCATS).
The shares of active, inactive and inconclusive entries below differ from those in the screen. For some of these results: A potency beside an inconclusive call is a rough fit, not a confirmed value. Active and inactive are the calls of the source. Calls follow the shape of the dose curve; as a rule, active = well fitted curve in the direction sought with a large enough effect; inconclusive = small, poorly fitted or top-dose-only effect, or another doubt; inactive = no such curve, though single readings can be large; an effect the other way counts as inactive or inconclusive.

How the values were obtained:
[1] = Quantitative High-Throughput drug screen in 47 multiple myeloma cell lines against the NCATS MIPE library collection: KMS27_JCRB cell viability assay (AID 1918970); also: nearly all actives have a fitted effect of over 30% in size
Outline: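 KMS27_JCRB myeloma cells, 500 per well, exposed 48 h at 37 C, 5% CO2 to MIPE 4.0 compounds. Viability from ATP by CellTiter-Glo luminescence, normalized to DMSO (100%) and medium-only (0%) wells.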

[2] = Quantitative High-Throughput drug screen in 47 multiple myeloma cell lines against the NCATS MIPE library collection: KMS12BM_JCRB cell viability assay (AID 1918971); also: nearly all actives have a fitted effect of over 35% in size
Outline: (§1)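 Myeloma cell lines, 500 cells per well, exposed to MIPE 4.0 library compounds for 48 h at 37C, 5% CO2. Viability from ATP by CellTiter-Glo luminescence; normalised to DMSO (100%) and media-only (0%) wells.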

[3] = Quantitative High-Throughput drug screen in 47 multiple myeloma cell lines against the NCATS MIPE library collection: KMS12PE_JCRB cell viability assay (AID 1918972); also: potency is read from the fitted curve at half-maximal effect; nearly all actives have a fitted effect of over 30% in size
Outline: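 Viability readout: CellTiter-Glo luminescence following 5 min room-temperature incubation with reagent. Prior exposure: 48 h, 37C, humidified 5% CO2, 500 cells per well.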

[4] = Quantitative High-Throughput drug screen in 47 multiple myeloma cell lines against the NCATS MIPE library collection: KMS20_JCRB cell viability assay (AID 1918973); settings: CellTiter-Glo ATP, 48 h; viability (% of DMSO): at 45.8 µM (top of the series); also: potency is read from the fitted curve at half-maximal effect; nearly all actives have a fitted effect of over 45% in size
Outline: (§2)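 CellTiter-Glo ATP luminescence gave viability after 48 h compound treatment at 37C of 500 multiple myeloma cells per well. Normalisation used DMSO-only wells as 100% and media-only wells as 0% viability; primary qHTS of approved and investigational drugs.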

[5] = Quantitative High-Throughput drug screen in 47 multiple myeloma cell lines against the NCATS MIPE library collection: KMS21BM_JCRB cell viability assay (AID 1918974); also: potency is read from the fitted curve at half-maximal effect
Outline: as §2

[6] = Quantitative High-Throughput drug screen in 47 multiple myeloma cell lines against the NCATS MIPE library collection: KMS26_JCRB cell viability assay (AID 1918975); settings: KMS26 myeloma cells viability, CellTiter-Glo ATP, 48 h; viability (% of DMSO): at 45.8 µM (top of the series); also: nearly all actives have a fitted effect of over 45% in size
Outline: as §1

[7] = Quantitative High-Throughput drug screen in 47 multiple myeloma cell lines against the NCATS MIPE library collection: MMM1_PLB cell viability assay (AID 1918976); also: potency is read from the fitted curve at half-maximal effect; nearly all actives have a fitted effect of over 35% in size
Outline: (§3)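 Cells were exposed to library compounds for 48 hours, after which ATP was measured by CellTiter-Glo. Signal was taken as median relative luminescence units.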

[8] = Quantitative High-Throughput drug screen in 47 multiple myeloma cell lines against the NCATS MIPE library collection: MOLP8_DSMZ cell viability assay (AID 1918977); settings: MOLP8 myeloma viability, CellTiter-Glo ATP luminescence, 48 h; viability (% of control): at 45.8 µM (top of the series); also: potency is read from the fitted curve at half-maximal effect; nearly all actives have a fitted effect of over 45% in size
Outline: as §3

[9] = Quantitative High-Throughput drug screen in 47 multiple myeloma cell lines against the NCATS MIPE library collection: NCIH929_DSMZ cell viability assay (AID 1918978); also: nearly all actives have a fitted effect of over 35% in size
Outline: as §3

[10] = Quantitative High-Throughput drug screen in 47 multiple myeloma cell lines against the NCATS MIPE library collection: MM1S_ATCC cell viability assay (AID 1918980); also: potency is read from the fitted curve at half-maximal effect; nearly all actives have a fitted effect of over 45% in size
Outline: as §3

[11] = Quantitative High-Throughput drug screen in 47 multiple myeloma cell lines against the NCATS MIPE library collection: MM1R_ATCC cell viability assay (AID 1918981); also: potency is read from the fitted curve at half-maximal effect; nearly all actives have a fitted effect of over 35% in size
Outline: as §3

[12] = Quantitative High-Throughput drug screen in 47 multiple myeloma cell lines against the NCATS MIPE library collection: LP1_DSMZ cell viability assay (AID 1918982); also: nearly all actives have a fitted effect of over 35% in size
Outline: as §3

[13] = Quantitative High-Throughput drug screen in 47 multiple myeloma cell lines against the NCATS MIPE library collection: KMS28PE_JCRB cell viability assay (AID 1918983); also: nearly all actives have a fitted effect of over 35% in size
Outline: as §3

[14] = Quantitative High-Throughput drug screen in 47 multiple myeloma cell lines against the NCATS MIPE library collection: L363_DSMZ cell viability assay (AID 1918984); settings: L363 myeloma viability, CellTiter-Glo ATP luminescence, 48 h; viability (% of control): at 45.8 µM (top of the series); also: nearly all actives have a fitted effect of over 40% in size
Outline: as §3

[15] = Quantitative High-Throughput drug screen in 47 multiple myeloma cell lines against the NCATS MIPE library collection: KMS34_JCRB cell viability assay (AID 1918985); also: nearly all actives have a fitted effect of over 40% in size
Outline: as §3

[16] = Quantitative High-Throughput drug screen in 47 multiple myeloma cell lines against the NCATS MIPE library collection: OCIMY5_PLB cell viability assay (AID 1918988); also: nearly all actives have a fitted effect of over 65% in size
Outline: as §3

[17] = Quantitative High-Throughput drug screen in 47 multiple myeloma cell lines against the NCATS MIPE library collection: SKMM1_PLB cell viability assay (AID 1919863); settings: SKMM1 myeloma viability, CellTiter-Glo ATP, 48 h; viability: active compounds read low
Outline: as §3

[18] = Quantitative High-Throughput drug screen in 47 multiple myeloma cell lines against the NCATS MIPE library collection: XG1_PLB cell viability assay (AID 1919866)
Outline: as §3

[19] = Quantitative High-Throughput drug screen in 47 multiple myeloma cell lines against the NCATS MIPE library collection: VP6_DJ cell viability assay (AID 1919867); also: nearly all actives have a fitted effect of over 40% in size
Outline: as §3

[20] = Quantitative High-Throughput drug screen in 47 multiple myeloma cell lines against the NCATS MIPE library collection: UTMC2_PLB cell viability assay (AID 1919868); settings: CellTiter-Glo ATP luminescence, 48 h; series mostly up to 45.8 µM; also: nearly all actives have a fitted effect of over 55% in size
Outline: as §3

[21] = Quantitative High-Throughput drug screen in 47 multiple myeloma cell lines against the NCATS MIPE library collection: PE2_PLB cell viability assay (AID 1919869)
Outline: as §3

[22] = Quantitative High-Throughput drug screen in 47 multiple myeloma cell lines against the NCATS MIPE library collection: KMS11_JCRBsus cell viability assay (AID 1919873); also: nearly all actives have a fitted effect of over 50% in size
Outline: as §3

Measured: Potency

CCCCCCCCCCCCc1ccc(S(=O)(=O)Nc2nncs2)cc1
inconclusive: [3] 4.18 µM [cytotoxic, partial curve, poor fit] | [4] 5.9 µM [rising, partial curve, poor fit] | [5] 29.6 µM [rising, partial curve] | [7] 20.9 µM [cytotoxic, partial curve, poor fit] | [8] 13.2 µM [cytotoxic, partial curve, poor fit] | [10] 10.5 µM [cytotoxic, partial curve, poor fit] | [17] 20.9 µM [cytotoxic, single point] | [18] 29.6 µM [cytotoxic, single point]
inactive: [1] | [2] | [6] | [9] | [12] | [13] | [14] | [15] | [16] | [19] | [20] | [22]
active: [11] 18.7 µM | [21] 8.33 µM
